No constants are given. Whether binding was seen depends on the method and setting. Binding calls can cover weak binding; strength is not graded here.
Molecular target: T1, FlgL (HAP3), hook-associated protein of V. vulnificus MO6-24/O (Vibrio vulnificus)
T1 sequence: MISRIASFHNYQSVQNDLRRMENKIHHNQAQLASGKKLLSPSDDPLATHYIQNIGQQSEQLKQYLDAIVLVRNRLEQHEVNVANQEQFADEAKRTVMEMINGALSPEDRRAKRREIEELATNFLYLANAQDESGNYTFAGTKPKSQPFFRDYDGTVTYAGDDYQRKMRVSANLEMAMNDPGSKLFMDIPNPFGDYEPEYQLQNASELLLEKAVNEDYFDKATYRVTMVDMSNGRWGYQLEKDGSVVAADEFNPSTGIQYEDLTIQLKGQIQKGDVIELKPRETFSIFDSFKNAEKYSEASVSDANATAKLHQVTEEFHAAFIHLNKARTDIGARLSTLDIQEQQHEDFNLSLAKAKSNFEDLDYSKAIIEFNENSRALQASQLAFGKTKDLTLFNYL
Assay: two-hybrid; bacterial two-hybrid (BACTH, pUT18c and pKT25) in E. coli BTH101; β-galactosidase by colour on LB-X-Gal agar with 0.5 mM IPTG and by ONPG assay (Miller units); compared with the positive (zip/zip) and negative (empty vectors) controls

Question: For “FlaB, flagellin subunit of V. vulnificus MO6-24/O (Vibrio vulnificus)”, which binding is on record?
Answer: Its binding is “binds”.

Question: How did the binding turn out when “FlaE, flagellin-homologous protein of V. vulnificus MO6-24/O (Vibrio vulnificus)” was run?
Answer: The binding was “no binding”.

Question: “FlaF, flagellin-homologous protein of V. vulnificus MO6-24/O (Vibrio vulnificus)” was tested. Which binding did it give?
Answer: The binding was “no binding”.
